Results taken from publication PMC10797690, “The SIRT3-ATAD3A axis regulates MAM dynamics and mitochondrial calcium homeostasis in cardiac hypertrophy” (International Journal of Biological Sciences, 2024).
Results are given in words; binding and its absence hold for the method and conditions named. For part of these data: In cells and extracts the contact can be indirect. Some results given as binding are weak or reduced against the parent protein; the word gives no strength. For part of these data: Tags and fused reporters may be left off the sequences shown.

By UniProt entry, the sequences of proteins in these tests, tags left out. Residues count along the entry.
UniProt P29994: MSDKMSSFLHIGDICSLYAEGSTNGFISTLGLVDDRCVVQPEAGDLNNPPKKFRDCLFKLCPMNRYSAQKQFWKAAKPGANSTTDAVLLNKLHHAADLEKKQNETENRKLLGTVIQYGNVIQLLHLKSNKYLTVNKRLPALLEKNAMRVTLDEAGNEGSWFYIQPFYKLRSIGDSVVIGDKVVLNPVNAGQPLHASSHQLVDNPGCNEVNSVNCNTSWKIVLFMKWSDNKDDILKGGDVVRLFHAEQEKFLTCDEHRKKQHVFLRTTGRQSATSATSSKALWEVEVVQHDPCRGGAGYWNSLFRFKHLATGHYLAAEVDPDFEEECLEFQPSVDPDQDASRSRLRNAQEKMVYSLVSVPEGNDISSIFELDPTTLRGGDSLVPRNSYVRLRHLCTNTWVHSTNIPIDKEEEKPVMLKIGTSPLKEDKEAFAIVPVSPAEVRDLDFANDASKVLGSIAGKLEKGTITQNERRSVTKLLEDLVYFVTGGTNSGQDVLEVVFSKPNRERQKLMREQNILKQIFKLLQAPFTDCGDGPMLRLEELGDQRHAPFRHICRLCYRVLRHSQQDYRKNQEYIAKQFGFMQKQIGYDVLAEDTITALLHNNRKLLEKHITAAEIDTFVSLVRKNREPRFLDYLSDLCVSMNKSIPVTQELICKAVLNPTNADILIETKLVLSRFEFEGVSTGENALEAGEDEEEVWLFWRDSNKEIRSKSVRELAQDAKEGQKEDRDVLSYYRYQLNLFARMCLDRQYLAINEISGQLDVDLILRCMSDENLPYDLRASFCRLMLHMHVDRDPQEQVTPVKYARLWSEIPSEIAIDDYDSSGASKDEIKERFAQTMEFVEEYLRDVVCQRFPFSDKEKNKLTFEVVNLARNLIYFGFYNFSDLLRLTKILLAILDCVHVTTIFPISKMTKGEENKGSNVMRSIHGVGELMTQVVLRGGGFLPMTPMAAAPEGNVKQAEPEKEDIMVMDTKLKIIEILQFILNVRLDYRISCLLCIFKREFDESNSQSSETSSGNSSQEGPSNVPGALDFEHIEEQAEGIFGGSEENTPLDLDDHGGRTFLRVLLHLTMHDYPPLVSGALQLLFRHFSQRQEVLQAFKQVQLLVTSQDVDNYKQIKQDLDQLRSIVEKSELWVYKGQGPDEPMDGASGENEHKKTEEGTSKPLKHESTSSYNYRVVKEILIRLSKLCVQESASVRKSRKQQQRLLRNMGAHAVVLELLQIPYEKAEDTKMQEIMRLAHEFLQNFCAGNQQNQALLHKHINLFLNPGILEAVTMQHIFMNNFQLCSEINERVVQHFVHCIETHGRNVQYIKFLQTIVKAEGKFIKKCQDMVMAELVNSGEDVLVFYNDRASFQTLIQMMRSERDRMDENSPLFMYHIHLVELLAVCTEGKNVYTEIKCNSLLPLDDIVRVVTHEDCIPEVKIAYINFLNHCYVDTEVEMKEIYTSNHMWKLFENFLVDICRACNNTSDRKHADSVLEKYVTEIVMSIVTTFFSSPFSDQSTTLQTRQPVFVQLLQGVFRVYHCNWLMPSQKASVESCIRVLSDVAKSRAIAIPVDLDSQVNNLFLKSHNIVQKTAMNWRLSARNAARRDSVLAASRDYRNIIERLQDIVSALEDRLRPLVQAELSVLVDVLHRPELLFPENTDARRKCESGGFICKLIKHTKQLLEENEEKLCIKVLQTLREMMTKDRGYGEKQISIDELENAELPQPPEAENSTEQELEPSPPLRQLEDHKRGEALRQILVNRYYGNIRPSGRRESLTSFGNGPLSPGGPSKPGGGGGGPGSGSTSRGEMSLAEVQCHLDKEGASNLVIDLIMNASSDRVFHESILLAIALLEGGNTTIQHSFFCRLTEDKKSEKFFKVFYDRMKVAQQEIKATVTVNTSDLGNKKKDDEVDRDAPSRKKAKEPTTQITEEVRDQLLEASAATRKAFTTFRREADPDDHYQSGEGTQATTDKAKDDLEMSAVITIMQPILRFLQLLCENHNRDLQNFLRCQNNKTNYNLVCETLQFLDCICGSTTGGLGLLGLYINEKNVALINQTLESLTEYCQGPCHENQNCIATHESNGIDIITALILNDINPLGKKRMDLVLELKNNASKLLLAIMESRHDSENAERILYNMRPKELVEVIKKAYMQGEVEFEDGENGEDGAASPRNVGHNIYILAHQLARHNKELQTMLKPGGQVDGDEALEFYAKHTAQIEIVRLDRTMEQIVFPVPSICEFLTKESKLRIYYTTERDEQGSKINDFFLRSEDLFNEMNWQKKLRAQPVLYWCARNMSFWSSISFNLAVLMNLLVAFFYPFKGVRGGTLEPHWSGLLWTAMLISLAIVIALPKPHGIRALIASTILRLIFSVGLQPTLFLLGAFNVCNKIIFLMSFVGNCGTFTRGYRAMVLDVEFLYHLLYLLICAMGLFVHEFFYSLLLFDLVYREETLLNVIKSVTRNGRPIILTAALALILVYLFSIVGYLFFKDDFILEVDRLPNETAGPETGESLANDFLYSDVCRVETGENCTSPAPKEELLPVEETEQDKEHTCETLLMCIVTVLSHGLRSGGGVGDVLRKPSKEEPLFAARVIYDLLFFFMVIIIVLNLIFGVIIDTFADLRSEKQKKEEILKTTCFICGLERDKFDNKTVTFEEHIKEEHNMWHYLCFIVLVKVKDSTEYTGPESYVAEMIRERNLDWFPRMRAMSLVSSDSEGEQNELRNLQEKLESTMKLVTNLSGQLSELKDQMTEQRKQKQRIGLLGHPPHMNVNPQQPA
UniProt P48721, residues 47-679: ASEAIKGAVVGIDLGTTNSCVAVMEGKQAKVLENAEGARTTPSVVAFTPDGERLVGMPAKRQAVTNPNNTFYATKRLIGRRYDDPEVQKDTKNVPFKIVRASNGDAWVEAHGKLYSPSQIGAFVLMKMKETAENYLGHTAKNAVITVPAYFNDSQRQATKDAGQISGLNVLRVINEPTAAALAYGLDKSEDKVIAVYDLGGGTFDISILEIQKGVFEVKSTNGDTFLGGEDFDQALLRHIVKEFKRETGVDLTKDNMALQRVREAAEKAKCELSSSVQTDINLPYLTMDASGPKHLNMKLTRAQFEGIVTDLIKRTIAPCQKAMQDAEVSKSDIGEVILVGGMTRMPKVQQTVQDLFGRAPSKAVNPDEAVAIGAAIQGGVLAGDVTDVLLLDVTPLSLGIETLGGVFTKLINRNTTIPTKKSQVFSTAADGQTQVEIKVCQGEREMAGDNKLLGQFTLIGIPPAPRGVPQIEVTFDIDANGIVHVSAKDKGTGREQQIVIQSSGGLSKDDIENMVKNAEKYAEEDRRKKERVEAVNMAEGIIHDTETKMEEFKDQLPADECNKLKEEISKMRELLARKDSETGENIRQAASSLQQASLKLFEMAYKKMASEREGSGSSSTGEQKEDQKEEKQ
UniProt Q9Z2L0: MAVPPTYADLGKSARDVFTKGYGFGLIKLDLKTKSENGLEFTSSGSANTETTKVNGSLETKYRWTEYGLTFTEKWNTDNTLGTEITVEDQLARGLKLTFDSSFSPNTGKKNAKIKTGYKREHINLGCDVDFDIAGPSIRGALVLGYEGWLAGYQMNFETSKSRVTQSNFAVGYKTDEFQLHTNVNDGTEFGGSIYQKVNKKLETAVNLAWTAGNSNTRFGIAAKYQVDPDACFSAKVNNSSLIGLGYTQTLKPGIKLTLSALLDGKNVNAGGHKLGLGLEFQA

T1: ATAD3A, endogenous in rat cardiomyocytes and rat cardiac tissue (rat (endogenous in NRCMs and rat heart)) (UniProt Q3KRE0)
T1 sequence: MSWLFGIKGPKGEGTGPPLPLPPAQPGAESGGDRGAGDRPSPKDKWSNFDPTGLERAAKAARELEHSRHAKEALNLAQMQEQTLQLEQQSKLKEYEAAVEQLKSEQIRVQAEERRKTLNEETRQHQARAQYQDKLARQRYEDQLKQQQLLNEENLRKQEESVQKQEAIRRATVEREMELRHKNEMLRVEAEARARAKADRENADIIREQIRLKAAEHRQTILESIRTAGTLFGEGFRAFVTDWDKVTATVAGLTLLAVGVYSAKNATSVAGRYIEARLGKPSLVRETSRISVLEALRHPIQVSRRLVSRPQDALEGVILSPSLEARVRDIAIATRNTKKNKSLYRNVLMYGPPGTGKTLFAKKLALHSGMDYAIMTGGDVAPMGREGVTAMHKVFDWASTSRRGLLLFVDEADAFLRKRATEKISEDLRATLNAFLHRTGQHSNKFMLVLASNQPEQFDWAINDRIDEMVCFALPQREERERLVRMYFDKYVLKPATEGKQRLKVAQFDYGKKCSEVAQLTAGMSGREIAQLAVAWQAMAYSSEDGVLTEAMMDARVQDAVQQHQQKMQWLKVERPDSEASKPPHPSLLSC

T2: ATAD3A-Flag (UniProt Q3KRE0)
T2 sequence: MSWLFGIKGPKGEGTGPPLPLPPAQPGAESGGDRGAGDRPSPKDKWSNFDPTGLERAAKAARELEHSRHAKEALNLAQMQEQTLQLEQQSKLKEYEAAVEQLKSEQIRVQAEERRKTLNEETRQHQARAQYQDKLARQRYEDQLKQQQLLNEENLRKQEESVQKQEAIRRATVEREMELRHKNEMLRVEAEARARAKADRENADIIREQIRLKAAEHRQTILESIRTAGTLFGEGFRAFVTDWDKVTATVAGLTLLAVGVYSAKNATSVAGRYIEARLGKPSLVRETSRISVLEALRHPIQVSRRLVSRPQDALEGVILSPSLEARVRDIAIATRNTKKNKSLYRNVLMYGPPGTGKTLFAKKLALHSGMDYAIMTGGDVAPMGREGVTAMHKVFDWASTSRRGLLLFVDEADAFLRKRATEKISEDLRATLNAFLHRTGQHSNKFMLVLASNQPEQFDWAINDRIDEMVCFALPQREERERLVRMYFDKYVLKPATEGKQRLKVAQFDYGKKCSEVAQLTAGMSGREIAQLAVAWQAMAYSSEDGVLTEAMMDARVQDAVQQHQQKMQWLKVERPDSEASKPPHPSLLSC

T3: ATAD3A-K134Q (UniProt Q3KRE0)
T3 sequence: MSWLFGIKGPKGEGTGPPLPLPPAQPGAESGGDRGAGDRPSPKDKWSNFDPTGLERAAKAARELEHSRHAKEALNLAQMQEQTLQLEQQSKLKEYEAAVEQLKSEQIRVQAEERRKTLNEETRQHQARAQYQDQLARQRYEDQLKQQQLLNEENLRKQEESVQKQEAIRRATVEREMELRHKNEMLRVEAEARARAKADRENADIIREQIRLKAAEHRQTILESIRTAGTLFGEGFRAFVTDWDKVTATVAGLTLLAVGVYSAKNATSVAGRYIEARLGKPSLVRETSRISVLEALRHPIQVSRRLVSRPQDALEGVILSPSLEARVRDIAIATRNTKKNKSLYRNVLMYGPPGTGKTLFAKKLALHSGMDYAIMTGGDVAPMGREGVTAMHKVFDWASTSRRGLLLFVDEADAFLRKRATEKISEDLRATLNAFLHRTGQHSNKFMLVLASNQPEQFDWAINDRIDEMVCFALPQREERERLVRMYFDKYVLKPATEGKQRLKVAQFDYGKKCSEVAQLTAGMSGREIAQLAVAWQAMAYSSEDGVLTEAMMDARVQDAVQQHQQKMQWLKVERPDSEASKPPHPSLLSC

T4: ATAD3A-K134E (UniProt Q3KRE0)
T4 sequence: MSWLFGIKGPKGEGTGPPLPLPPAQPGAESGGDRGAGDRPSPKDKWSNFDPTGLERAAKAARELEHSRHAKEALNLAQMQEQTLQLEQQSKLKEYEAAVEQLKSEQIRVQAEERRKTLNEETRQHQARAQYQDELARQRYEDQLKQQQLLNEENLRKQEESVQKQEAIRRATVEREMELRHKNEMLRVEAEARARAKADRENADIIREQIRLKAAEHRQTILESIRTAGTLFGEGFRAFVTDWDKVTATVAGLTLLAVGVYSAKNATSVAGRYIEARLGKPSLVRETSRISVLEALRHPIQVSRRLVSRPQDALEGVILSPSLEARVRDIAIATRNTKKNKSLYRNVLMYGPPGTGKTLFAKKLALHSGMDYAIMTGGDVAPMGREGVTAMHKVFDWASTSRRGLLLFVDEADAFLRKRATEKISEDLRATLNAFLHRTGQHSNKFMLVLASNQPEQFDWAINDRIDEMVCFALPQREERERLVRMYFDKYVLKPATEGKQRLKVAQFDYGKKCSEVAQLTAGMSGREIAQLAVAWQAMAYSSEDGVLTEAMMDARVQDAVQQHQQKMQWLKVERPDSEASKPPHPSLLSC


Key:
[1] = target: T1, ATAD3A, endogenous in rat cardiomyocytes and rat cardiac tissue (rat (endogenous in NRCMs and rat heart)); assay: co-IP; endogenous proteins in cardiomyocytes, immunoprecipitated and revealed using the indicated antibodies
ATAD3A-Flag [2] = target: T2, ATAD3A-Flag; assay: co-IP; H9c2 cells transfected with ATAD3A-Flag or ATAD3A-K134Q, IP with anti-Flag antibody, Western blot; with 3-TYP or DMSO
ATAD3A-K134Q [3] = target: T3, ATAD3A-K134Q; assay: as above
[4] = target: IP3 Receptor 1 (IP3R1), endogenous (rat (endogenous in cardiomyocytes, H9c2 cells and rat heart)) (UniProt P29994); assay: co-IP; lysates of rat heart tissue (Ad-GFP or Ad-ATAD3A, ISO or normal saline), IP with anti-IP3R1 antibody, Western blot
ATAD3A-K134E = target: T4, ATAD3A-K134E; assay: co-IP; H9c2 cells co-transfected with GFP-ATAD3A and ATAD3A-Flag or its mutants; immunoprecipitation with anti-Flag beads, immunoblot with anti-GFP
ATAD3A-Flag [5] = target: T2, ATAD3A-Flag; assay: native gel or EMSA; native gel electrophoresis of total lysates of transfected H9c2 cells, NRCMs or cardiac tissue; ATAD3A oligomers; treatments: ISO, siSIRT3, SIRT3-KO, SZC-6
ATAD3A-K134Q [6] = target: T3, ATAD3A-K134Q; assay: as above
[7] = target: T1, ATAD3A, endogenous in rat cardiomyocytes and rat cardiac tissue (rat (endogenous in NRCMs and rat heart)); assay: as above

Row | Molecule | binding [1] | binding (ATAD3A-Flag [2]) | binding (ATAD3A-K134Q [3]) | also measured
1 | IP3 Receptor 1 (IP3R1), endogenous (from UniProt P29994 1-2750) | binds | binds | binds | 
2 | glucose-regulated protein 75 (GRP75), endogenous (from UniProt P48721 47-679) | binds | binds | binds | binding [4]: binds
3 | voltage-dependent anion channel 1 (VDAC1), endogenous (from UniProt Q9Z2L0 1-283) | binds | binds | binds | binding [4]: binds
4 | GFP-ATAD3A (protein, UniProt Q3KRE0 1-591) MSWLFGIKGPKGEGTGPPLPLPPAQPGAESGGDRGAGDRPSPKDKWSNFDPTGLERAAKAARELEHSRHAKEALNLAQMQEQTLQLEQQSKLKEYEAAVEQLKSEQIRVQAEERRKTLNEETRQHQARAQYQDKLARQRYEDQLKQQQLLNEENLRKQEESVQKQEAIRRATVEREMELRHKNEMLRVEAEARARAKADRENADIIREQIRLKAAEHRQTILESIRTAGTLFGEGFRAFVTDWDKVTATVAGLTLLAVGVYSAKNATSVAGRYIEARLGKPSLVRETSRISVLEALRHPIQVSRRLVSRPQDALEGVILSPSLEARVRDIAIATRNTKKNKSLYRNVLMYGPPGTGKTLFAKKLALHSGMDYAIMTGGDVAPMGREGVTAMHKVFDWASTSRRGLLLFVDEADAFLRKRATEKISEDLRATLNAFLHRTGQHSNKFMLVLASNQPEQFDWAINDRIDEMVCFALPQREERERLVRMYFDKYVLKPATEGKQRLKVAQFDYGKKCSEVAQLTAGMSGREIAQLAVAWQAMAYSSEDGVLTEAMMDARVQDAVQQHQQKMQWLKVERPDSEASKPPHPSLLSC |  |  |  | binding (ATAD3A-K134E): binds
5 | ATAD3A-Flag (protein, UniProt Q3KRE0 1-591) MSWLFGIKGPKGEGTGPPLPLPPAQPGAESGGDRGAGDRPSPKDKWSNFDPTGLERAAKAARELEHSRHAKEALNLAQMQEQTLQLEQQSKLKEYEAAVEQLKSEQIRVQAEERRKTLNEETRQHQARAQYQDKLARQRYEDQLKQQQLLNEENLRKQEESVQKQEAIRRATVEREMELRHKNEMLRVEAEARARAKADRENADIIREQIRLKAAEHRQTILESIRTAGTLFGEGFRAFVTDWDKVTATVAGLTLLAVGVYSAKNATSVAGRYIEARLGKPSLVRETSRISVLEALRHPIQVSRRLVSRPQDALEGVILSPSLEARVRDIAIATRNTKKNKSLYRNVLMYGPPGTGKTLFAKKLALHSGMDYAIMTGGDVAPMGREGVTAMHKVFDWASTSRRGLLLFVDEADAFLRKRATEKISEDLRATLNAFLHRTGQHSNKFMLVLASNQPEQFDWAINDRIDEMVCFALPQREERERLVRMYFDKYVLKPATEGKQRLKVAQFDYGKKCSEVAQLTAGMSGREIAQLAVAWQAMAYSSEDGVLTEAMMDARVQDAVQQHQQKMQWLKVERPDSEASKPPHPSLLSC |  |  |  | binding (ATAD3A-Flag [5]): binds
6 | ATAD3A-K134Q (protein, UniProt Q3KRE0 1-591) MSWLFGIKGPKGEGTGPPLPLPPAQPGAESGGDRGAGDRPSPKDKWSNFDPTGLERAAKAARELEHSRHAKEALNLAQMQEQTLQLEQQSKLKEYEAAVEQLKSEQIRVQAEERRKTLNEETRQHQARAQYQDQLARQRYEDQLKQQQLLNEENLRKQEESVQKQEAIRRATVEREMELRHKNEMLRVEAEARARAKADRENADIIREQIRLKAAEHRQTILESIRTAGTLFGEGFRAFVTDWDKVTATVAGLTLLAVGVYSAKNATSVAGRYIEARLGKPSLVRETSRISVLEALRHPIQVSRRLVSRPQDALEGVILSPSLEARVRDIAIATRNTKKNKSLYRNVLMYGPPGTGKTLFAKKLALHSGMDYAIMTGGDVAPMGREGVTAMHKVFDWASTSRRGLLLFVDEADAFLRKRATEKISEDLRATLNAFLHRTGQHSNKFMLVLASNQPEQFDWAINDRIDEMVCFALPQREERERLVRMYFDKYVLKPATEGKQRLKVAQFDYGKKCSEVAQLTAGMSGREIAQLAVAWQAMAYSSEDGVLTEAMMDARVQDAVQQHQQKMQWLKVERPDSEASKPPHPSLLSC |  |  |  | binding (ATAD3A-K134Q [6]): binds
7 | ATAD3A, endogenous in rat cardiomyocytes and rat cardiac tissue (protein, UniProt Q3KRE0 1-591) MSWLFGIKGPKGEGTGPPLPLPPAQPGAESGGDRGAGDRPSPKDKWSNFDPTGLERAAKAARELEHSRHAKEALNLAQMQEQTLQLEQQSKLKEYEAAVEQLKSEQIRVQAEERRKTLNEETRQHQARAQYQDKLARQRYEDQLKQQQLLNEENLRKQEESVQKQEAIRRATVEREMELRHKNEMLRVEAEARARAKADRENADIIREQIRLKAAEHRQTILESIRTAGTLFGEGFRAFVTDWDKVTATVAGLTLLAVGVYSAKNATSVAGRYIEARLGKPSLVRETSRISVLEALRHPIQVSRRLVSRPQDALEGVILSPSLEARVRDIAIATRNTKKNKSLYRNVLMYGPPGTGKTLFAKKLALHSGMDYAIMTGGDVAPMGREGVTAMHKVFDWASTSRRGLLLFVDEADAFLRKRATEKISEDLRATLNAFLHRTGQHSNKFMLVLASNQPEQFDWAINDRIDEMVCFALPQREERERLVRMYFDKYVLKPATEGKQRLKVAQFDYGKKCSEVAQLTAGMSGREIAQLAVAWQAMAYSSEDGVLTEAMMDARVQDAVQQHQQKMQWLKVERPDSEASKPPHPSLLSC |  |  |  | binding [7]: binds
